Measurements from patent US20210395309A1 (Hong Kong Baptist University, priority 2020, published 2021).

Experiment: general procedure: Fmoc solid-phase peptide synthesis; Rink amide resin AM; HBTU
Conditions: whole synthesis, Agilent Technologies 1260 Infinity HPLC with a kromasil C18-5 column

EWPRPQIPP-NH2
final HPLC purity: >95%
